{"source": "paper doi:10.1101/2023.07.28.550924", "about": "(bioRxiv, 2023)", "binders": {"B1": {"name": "Spirochaeta thermophila YeeE (protein, UniProt G0GAP6 1-328)", "chain": "MIWTGLLVGFLFGIVLQRGRICFNSAFRDVLLFKDNYLFKLAVFTLALEMILFVLLSQVGLMQMNPKPLNLVGNIIGGFVFGLGMVLAGGCASGVTYRVGEGLTTAWFAALFYGLGAYATKSGAFSWWLSWVGQFKSPLSVEESAYYVKGAGPTISSVLGLNPWIPALVIAALFILWAFGTKTTSRETKFNWKIASVCLALVAGLGFITSTLSGRKYGLGITGGWINLFQGFLTNSPLNWEGLEIVGIILGAGVAAAVAGEFKLRMPKNPVTYLQVGIGGLLMGIGAVTAGGCNIGHFLTGVPQLALSSWLASIFFILGNWTMAWILF"}}, "molecular_target": "StYeeD(L45A), His-tagged (Spirochaeta thermophila) (UniProt G0GAP7)", "assay": "BLI", "note": "No constants are given. Whether binding was seen depends on the method and setting. Binding calls can cover weak binding; strength is not graded here.", "data": [{"binder": "B1", "values": [{"measurement": "binding", "result": "binds"}]}]}
